The results in this text go back to publication doi:10.1101/2024.04.22.590536 (bioRxiv, 2024).

In assay [1] the target is T1, Enp2 fused to the GAL4 DNA binding domain (S. cerevisiae) (UniProt P48234).
T1 sequence: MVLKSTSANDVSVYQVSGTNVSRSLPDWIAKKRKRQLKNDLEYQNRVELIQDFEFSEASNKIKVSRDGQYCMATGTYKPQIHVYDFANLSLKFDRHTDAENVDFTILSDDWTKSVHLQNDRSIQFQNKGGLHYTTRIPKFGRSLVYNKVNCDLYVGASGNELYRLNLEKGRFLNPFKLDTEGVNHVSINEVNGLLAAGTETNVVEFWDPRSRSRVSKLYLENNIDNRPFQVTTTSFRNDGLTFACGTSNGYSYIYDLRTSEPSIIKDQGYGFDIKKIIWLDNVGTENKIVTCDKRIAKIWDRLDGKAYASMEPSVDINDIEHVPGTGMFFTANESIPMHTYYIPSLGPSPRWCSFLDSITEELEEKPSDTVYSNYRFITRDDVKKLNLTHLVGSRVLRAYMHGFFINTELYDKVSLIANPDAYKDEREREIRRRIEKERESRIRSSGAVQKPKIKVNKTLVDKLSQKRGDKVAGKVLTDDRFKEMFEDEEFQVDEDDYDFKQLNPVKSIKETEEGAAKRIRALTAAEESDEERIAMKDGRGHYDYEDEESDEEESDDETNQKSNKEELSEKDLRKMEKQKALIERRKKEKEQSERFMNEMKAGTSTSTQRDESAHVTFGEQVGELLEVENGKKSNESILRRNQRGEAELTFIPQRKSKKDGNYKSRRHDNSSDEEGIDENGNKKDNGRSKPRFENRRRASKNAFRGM
The experiment in a line: two-hybrid.

Assay [2] concerns the target ifh-7 fused to the GAL4 DNA binding domain (S. cerevisiae). Kind of assay: two-hybrid.

No constants are given. Whether binding was seen depends on the method and setting. Binding can be weak; no strength is given. Sequences can lack the tags named with a protein.

For the molecule “stm1ΔC fused to the GAL4 activation domain (S. cerevisiae) (domain or fragment)”, the binding result in assay [1] was “binds”.

B1: Stm1 fused to the GAL4 activation domain (protein, UniProt P39015 1-273)
chain: MSNPFDLLGNDVEDADVVVLPPKEIVKSNTSSKKADVPPPSADPSKARKNRPRPSGNEGAIRDKTAGRRNNRSKDVTDSATTKKSNTRRATDRHSRTGKTDTKKKVNQGWGDDKKELSAEKEAQADAAAEIAEDAAEAEDAGKPKTAQLSLQDYLNQQANNQFNKVPEAKKVELDAERIETAEKEAYVPATKVKNVKSKQLKTKEYLEFDATFVESNTRKNFGDRNNNSRNNFNNRRGGRGARKGNNTANATNSANTVQKNRNIDVSNLPSLA
Regarding B1, the binding result in assay [2] is reported as “binds”.
